The other results are listed elsewhere or left out.

Sequences of proteins named here, by UniProt entry; tags and fusion partners are left off. A change or cut given only in a name is not applied to a line headed by its entry.
UniProt Q14919: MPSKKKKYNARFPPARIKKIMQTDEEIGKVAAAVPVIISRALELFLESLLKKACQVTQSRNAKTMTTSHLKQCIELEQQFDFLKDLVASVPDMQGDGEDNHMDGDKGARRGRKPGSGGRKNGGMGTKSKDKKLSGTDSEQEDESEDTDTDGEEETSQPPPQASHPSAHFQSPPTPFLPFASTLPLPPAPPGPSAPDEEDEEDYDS
UniProt Q16254: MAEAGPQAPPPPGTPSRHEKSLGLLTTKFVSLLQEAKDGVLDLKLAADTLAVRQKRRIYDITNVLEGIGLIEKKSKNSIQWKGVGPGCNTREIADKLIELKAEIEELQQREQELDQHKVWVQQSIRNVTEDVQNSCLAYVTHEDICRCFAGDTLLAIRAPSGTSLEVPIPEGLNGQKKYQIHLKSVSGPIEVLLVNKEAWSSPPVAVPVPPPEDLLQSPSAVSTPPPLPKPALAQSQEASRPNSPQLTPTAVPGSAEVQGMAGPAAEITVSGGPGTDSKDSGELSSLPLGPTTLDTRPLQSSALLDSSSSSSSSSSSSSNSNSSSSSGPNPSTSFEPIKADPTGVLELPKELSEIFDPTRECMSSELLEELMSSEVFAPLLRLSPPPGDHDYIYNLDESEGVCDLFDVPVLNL
UniProt Q96C19: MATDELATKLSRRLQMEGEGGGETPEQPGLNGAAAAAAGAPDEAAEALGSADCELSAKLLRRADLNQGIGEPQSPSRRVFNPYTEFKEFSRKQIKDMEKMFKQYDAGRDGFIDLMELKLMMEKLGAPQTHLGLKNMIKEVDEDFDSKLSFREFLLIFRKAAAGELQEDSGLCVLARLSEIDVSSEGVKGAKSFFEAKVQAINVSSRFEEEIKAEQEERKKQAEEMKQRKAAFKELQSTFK
UniProt Q6V1X1: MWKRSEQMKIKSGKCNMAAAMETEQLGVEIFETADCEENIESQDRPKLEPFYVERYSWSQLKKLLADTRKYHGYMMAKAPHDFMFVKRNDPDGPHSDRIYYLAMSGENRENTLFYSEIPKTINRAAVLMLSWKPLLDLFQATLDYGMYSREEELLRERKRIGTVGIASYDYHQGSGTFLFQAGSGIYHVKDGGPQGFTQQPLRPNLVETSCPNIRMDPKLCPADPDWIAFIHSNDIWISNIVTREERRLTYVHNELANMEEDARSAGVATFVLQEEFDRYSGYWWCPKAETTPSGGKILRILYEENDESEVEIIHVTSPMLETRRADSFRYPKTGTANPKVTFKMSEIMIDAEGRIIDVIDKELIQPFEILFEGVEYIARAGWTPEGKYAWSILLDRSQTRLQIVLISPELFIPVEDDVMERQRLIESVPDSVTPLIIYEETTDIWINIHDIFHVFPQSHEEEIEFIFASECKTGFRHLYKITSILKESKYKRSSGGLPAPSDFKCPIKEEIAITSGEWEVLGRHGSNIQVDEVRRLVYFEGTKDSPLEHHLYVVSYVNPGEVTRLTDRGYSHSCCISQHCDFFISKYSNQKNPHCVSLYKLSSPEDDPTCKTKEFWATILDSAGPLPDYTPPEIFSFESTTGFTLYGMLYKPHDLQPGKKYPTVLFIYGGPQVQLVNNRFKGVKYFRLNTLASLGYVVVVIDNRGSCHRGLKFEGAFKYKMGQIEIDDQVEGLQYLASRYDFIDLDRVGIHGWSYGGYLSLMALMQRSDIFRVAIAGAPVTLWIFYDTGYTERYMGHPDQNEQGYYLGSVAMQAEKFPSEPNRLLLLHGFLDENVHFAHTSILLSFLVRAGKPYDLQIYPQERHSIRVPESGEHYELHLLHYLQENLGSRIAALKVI
UniProt Q9H410: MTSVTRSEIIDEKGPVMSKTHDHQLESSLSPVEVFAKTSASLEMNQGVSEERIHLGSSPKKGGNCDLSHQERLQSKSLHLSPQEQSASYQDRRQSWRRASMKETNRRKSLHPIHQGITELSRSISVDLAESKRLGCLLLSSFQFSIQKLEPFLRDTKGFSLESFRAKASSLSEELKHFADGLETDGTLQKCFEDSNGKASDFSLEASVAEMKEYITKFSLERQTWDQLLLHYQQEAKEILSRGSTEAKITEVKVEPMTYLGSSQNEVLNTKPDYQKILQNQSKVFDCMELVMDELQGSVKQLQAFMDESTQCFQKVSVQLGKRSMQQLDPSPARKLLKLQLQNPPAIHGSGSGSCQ
UniProt O95620: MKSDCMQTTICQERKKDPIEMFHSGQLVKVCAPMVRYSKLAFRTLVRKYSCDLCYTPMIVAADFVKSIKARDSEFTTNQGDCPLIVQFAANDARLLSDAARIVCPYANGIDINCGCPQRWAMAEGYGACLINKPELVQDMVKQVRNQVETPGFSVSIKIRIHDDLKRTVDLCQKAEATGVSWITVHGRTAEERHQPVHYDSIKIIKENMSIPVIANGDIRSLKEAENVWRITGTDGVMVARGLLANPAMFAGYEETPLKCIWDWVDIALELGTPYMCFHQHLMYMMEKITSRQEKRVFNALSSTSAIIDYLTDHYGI
UniProt O43324: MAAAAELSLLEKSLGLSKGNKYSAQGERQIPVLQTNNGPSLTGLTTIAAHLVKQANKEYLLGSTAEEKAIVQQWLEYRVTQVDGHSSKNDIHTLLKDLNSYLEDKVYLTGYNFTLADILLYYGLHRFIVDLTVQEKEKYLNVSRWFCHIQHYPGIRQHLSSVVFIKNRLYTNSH
UniProt Q7RTS9: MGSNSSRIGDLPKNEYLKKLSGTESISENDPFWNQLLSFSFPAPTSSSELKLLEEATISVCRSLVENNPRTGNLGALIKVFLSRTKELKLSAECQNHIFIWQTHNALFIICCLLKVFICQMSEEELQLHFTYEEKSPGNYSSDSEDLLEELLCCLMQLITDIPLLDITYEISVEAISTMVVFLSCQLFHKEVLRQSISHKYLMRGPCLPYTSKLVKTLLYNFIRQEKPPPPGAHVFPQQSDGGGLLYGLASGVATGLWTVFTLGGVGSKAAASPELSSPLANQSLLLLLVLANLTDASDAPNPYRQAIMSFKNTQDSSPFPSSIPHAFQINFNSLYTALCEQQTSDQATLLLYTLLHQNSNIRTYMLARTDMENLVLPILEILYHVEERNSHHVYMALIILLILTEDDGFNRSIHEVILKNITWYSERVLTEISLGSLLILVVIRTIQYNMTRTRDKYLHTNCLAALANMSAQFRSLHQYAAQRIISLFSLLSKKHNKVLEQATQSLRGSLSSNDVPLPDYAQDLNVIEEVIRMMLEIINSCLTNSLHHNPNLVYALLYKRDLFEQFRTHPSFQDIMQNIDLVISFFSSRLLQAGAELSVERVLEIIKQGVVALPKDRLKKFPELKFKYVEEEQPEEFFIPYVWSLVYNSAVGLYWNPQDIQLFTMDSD
UniProt Q15029: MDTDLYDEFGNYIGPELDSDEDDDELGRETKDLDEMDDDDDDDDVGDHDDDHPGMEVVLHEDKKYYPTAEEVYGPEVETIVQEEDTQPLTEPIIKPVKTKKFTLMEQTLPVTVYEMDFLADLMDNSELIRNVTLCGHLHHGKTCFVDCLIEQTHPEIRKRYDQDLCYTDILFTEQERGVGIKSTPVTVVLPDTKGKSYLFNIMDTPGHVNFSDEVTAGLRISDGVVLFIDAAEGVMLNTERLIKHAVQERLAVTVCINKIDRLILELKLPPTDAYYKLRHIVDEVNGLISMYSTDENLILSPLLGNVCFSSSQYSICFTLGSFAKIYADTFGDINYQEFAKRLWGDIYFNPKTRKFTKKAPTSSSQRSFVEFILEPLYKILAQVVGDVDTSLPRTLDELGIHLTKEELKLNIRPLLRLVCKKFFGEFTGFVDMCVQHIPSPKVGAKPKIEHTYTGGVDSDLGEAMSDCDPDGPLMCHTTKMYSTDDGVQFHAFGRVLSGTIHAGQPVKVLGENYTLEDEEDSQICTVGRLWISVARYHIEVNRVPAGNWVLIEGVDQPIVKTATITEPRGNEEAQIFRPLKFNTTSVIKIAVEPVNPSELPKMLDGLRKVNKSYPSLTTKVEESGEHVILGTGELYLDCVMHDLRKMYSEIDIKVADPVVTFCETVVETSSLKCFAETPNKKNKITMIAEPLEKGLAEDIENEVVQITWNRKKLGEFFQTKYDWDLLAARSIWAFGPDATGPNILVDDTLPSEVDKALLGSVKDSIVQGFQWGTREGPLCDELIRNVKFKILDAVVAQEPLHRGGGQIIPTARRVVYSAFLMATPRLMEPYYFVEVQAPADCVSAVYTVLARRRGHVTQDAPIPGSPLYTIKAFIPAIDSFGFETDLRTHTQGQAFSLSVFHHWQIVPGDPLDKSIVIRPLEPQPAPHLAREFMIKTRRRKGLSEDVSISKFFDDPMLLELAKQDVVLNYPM
EEF1AKMT2, A0A494BZY7, UniProt A0A494BZY7, whole entry, looked up: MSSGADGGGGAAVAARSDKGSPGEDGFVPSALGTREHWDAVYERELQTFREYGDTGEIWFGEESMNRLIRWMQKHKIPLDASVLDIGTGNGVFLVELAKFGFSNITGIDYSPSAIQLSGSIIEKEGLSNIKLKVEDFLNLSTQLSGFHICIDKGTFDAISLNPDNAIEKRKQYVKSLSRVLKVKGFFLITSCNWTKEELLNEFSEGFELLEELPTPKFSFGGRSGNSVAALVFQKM
UniProt Q92611: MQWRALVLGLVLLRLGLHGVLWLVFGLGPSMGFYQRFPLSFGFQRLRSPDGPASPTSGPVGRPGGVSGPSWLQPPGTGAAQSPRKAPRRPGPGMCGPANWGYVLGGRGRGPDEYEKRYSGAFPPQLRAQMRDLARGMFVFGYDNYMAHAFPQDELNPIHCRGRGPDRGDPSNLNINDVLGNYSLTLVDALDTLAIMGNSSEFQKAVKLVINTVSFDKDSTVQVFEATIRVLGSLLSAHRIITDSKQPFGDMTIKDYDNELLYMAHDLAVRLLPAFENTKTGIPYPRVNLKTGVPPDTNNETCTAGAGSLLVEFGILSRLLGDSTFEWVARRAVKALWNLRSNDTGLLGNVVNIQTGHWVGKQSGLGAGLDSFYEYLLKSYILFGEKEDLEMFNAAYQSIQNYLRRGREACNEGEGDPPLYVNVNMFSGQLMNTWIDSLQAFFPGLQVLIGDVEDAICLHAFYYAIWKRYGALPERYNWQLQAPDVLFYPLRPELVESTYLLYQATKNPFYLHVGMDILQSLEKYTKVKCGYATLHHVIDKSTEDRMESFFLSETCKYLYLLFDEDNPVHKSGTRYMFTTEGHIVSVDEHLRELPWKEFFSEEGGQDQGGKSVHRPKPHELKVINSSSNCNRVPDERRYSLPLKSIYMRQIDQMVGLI
UniProt Q96G46: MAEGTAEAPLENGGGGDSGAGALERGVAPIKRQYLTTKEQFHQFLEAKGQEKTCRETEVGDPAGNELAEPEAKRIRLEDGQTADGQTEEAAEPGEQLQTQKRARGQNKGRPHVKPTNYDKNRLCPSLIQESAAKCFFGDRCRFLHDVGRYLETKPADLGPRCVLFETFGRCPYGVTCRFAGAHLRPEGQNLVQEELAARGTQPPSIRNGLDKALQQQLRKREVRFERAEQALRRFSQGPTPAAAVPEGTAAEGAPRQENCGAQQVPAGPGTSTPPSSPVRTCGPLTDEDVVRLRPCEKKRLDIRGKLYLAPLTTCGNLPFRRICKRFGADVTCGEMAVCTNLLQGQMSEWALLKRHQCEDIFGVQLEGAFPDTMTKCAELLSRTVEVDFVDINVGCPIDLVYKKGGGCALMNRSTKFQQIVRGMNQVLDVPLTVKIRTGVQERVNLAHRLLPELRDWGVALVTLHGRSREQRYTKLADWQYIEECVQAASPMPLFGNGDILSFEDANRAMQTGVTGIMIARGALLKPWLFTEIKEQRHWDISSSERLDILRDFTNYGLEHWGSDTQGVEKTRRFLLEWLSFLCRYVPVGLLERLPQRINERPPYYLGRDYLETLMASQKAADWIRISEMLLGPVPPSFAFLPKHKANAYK
UniProt Q8WWZ3: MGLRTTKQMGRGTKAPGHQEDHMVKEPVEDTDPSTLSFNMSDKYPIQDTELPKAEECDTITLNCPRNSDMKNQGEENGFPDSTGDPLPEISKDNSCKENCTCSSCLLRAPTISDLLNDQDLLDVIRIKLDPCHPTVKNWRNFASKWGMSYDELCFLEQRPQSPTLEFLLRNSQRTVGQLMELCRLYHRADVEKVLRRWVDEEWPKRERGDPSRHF
UniProt Q9BUP0: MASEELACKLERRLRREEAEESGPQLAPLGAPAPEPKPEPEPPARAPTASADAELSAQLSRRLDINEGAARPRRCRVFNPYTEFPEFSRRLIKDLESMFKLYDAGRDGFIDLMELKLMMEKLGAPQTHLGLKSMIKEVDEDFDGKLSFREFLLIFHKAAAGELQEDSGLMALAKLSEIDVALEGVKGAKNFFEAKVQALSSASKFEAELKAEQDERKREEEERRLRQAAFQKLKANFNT
UniProt P23919: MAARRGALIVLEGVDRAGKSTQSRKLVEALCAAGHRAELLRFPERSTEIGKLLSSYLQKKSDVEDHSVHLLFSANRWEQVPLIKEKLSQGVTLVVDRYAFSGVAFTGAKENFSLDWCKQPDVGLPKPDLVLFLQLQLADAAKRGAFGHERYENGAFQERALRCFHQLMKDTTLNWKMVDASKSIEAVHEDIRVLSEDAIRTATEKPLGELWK
UniProt Q96FJ2, whole entry, looked up: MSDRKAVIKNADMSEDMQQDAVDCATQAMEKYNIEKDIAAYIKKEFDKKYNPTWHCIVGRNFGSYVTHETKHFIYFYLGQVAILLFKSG

Compound in this test: CC1=C(C2=C(C=C1)C(=O)C3=CC=CC=C3N2CCCN)C
Kind of test: log2 fold change, soluble protein after heating vs DMSO (PISA); higher = thermal stabilisation; K562 lysate, 10 uM; active = over 0.2 and 3.5 SD of the protein, either way, in both replicates (recomputed). Put shortly: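 A 30 min treatment with 10 μM compound was applied to crude K562 extract at 1 mg/mL protein in PBS pH 7.4 with 1 mM MgCl2. Heating for 3 min spanned 48°C-58°C, after which aliquots were pooled, adjusted to 0.5% NP-40 at 4°C and spun at 21,000xg for 90 min. TMTpro 16plex LC-MS/MS of the supernatant, with channel sums equalised, gave values recorded as log-two fold change in thermal stability against solvent controls, from duplicates.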
For the target EIF1B (UniProt O60739), the log2 fold change was inactive: -0.137. As for EDF1 (UniProt O60869), the figure is inactive: -0.103; as for DRAP1 isoform 2 (UniProt Q14919), inactive: 0.025; as for E2F4 (UniProt Q16254), inactive: 0.005. For the target EFHD2 (UniProt Q96C19), the log2 fold change is inactive: -0.013.

As to DPP8 (UniProt Q6V1X1), the log2 fold change was inactive: 0.017. The same measure for DSN1 (UniProt Q9H410): inactive: -0.018. As for DUS4L (UniProt O95620), the log2 fold change is inactive: -0.024. Regarding EEF1E1 (UniProt O43324), the log2 fold change was inactive: 0.008.

For the target DYM (UniProt Q7RTS9), the log2 fold change is inactive: -0.107.

In the case of EFTUD2 (UniProt Q15029), the log2 fold change is inactive: -0.004. As for EIF2A (UniProt Q9BY44), the figure is inactive: -0.007. Take EEF1AKMT2, A0A494BZY7: the log2 fold change was inactive: -0.033.

As for DPY19L1, A0A1B0GW05, the log2 fold change was inactive: 0.02. As for EDEM1 (UniProt Q92611), the figure is inactive: -0.032. In the case of DPYSL2 (UniProt Q16555), the log2 fold change is inactive: 0.02. The same measure for DUS3L (UniProt Q96G46): inactive: -0.007; for DSCC1 (UniProt Q9BVC3): inactive: 0.001. On to EHBP1 isoform 2 (UniProt Q8NDI1), for which the log2 fold change is inactive: 0.013. The same measure for EDARADD (UniProt Q8WWZ3): inactive: 0.062. As for EFHD1 (UniProt Q9BUP0), the figure is inactive: -0.022; as for DTYMK (UniProt P23919), inactive: -0.005; as for DYNLL2 (UniProt Q96FJ2), inactive: 0.007.

The record behind these values is the supplement of paper PMC10849652.
